Data reported in article PMC3790702.
These are yes or no findings as the source states them, for the method shown. In cells and extracts the contact can be indirect. Some binding calls cover weakened binding; strength is not graded here.

The chains behind the UniProt entries cited, without tags or fusion partners. Residues count along the entry.
UniProt Q02248: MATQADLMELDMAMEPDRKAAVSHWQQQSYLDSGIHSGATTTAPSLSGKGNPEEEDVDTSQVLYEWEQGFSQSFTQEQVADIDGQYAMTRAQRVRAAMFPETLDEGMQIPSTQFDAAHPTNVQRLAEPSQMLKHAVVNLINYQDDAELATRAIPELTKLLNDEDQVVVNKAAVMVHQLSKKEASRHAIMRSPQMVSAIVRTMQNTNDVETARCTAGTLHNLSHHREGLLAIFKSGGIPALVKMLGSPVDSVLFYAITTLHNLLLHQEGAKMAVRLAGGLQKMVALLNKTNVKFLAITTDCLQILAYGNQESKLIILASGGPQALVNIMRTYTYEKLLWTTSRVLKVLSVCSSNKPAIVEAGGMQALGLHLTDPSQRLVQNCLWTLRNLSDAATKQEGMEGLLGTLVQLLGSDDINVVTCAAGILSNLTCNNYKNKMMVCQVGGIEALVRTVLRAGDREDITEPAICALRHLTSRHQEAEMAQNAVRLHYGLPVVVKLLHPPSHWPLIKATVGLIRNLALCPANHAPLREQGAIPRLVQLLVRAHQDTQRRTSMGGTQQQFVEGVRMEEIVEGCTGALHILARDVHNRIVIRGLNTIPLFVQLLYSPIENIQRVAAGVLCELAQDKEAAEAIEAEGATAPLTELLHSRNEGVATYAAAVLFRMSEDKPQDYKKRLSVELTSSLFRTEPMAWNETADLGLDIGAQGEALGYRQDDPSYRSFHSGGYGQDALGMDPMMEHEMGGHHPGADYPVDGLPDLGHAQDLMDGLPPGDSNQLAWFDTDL
UniProt P15116, residues 160-906: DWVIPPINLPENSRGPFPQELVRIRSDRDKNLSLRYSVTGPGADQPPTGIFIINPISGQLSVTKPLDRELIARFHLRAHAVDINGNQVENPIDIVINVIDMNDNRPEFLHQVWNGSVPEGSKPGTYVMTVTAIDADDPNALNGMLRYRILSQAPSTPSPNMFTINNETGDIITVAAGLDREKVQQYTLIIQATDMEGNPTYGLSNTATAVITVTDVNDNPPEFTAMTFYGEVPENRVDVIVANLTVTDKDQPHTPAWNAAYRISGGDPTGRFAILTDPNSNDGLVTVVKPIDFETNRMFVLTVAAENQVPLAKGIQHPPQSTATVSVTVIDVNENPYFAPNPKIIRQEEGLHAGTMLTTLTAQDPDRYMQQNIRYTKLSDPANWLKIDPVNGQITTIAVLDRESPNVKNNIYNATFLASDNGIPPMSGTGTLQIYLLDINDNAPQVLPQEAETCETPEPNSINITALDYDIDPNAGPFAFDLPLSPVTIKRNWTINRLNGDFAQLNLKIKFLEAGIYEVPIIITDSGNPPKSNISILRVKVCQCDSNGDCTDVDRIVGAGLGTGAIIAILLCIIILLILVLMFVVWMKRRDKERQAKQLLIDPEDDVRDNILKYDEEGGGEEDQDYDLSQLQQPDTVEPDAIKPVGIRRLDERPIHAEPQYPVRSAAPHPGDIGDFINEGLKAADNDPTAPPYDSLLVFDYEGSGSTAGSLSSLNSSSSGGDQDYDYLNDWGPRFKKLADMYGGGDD

Biological target: β catenin (mouse (endogenous in mouse brain)) (UniProt Q02248)
Assay: co-IP; 200 µg brain homogenate (0.025 M Tris, 0.15 M NaCl, 0.001 M EDTA, 1% NP-40, 5% glycerol, pH 7.4) incubated overnight at 4°C with anti-β catenin antibody, protein A beads, five washes; immunoblot for N-cadherin; normothermic or heat acclimated mice, sham or 6, 12 or 24 h after closed head injury

“N-cadherin (from UniProt P15116 160-906)” was tested, and the binding was “binds”.
